No constants are given. Whether binding was seen depends on the method and setting. In cells and extracts the contact can be indirect. These calls come from enrichment with a bait or labelling near it, and not all partners need be listed.
What was measured:
Experiment in all cases: affinity purification with mass spectrometry
[1] = target: SEL1L (suppressor of lin-12-like), endogenous (human (endogenous in HEK293T)) (UniProt Q9UBV2)
[2] = target: HRD1 (HMG-CoA reductase degradation 1), endogenous (human (endogenous in HEK293T)) (UniProt Q86TM6)
[3] = target: HRD1 (HMG-CoA reductase degradation 1), endogenous (human (endogenous in HEK293T)), Q86TM6; conditions: remark: other sources report otherwise

By UniProt entry, the sequences of proteins in these tests, tags left out. Residues count along the entry.
UniProt Q9UBV2, residues 22-794: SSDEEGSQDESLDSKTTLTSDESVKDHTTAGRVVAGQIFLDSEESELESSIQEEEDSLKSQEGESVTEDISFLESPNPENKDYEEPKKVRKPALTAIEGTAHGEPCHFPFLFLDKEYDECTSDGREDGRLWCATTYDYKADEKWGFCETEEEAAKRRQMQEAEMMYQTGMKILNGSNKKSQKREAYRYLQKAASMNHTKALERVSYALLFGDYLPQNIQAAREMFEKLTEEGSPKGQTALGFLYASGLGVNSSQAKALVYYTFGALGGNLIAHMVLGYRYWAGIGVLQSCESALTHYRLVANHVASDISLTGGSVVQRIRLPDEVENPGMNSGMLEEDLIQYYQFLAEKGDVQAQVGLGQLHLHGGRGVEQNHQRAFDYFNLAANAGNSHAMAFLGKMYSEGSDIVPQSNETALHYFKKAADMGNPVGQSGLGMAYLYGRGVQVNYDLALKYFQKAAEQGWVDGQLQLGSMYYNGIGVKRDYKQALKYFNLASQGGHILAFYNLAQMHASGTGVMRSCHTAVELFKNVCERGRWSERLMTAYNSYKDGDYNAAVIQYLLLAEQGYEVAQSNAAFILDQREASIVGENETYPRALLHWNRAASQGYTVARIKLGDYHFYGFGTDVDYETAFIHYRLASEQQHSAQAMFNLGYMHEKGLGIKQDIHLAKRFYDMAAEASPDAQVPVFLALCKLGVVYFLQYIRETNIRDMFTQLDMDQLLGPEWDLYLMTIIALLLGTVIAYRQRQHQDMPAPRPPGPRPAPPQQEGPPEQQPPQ
UniProt Q86TM6: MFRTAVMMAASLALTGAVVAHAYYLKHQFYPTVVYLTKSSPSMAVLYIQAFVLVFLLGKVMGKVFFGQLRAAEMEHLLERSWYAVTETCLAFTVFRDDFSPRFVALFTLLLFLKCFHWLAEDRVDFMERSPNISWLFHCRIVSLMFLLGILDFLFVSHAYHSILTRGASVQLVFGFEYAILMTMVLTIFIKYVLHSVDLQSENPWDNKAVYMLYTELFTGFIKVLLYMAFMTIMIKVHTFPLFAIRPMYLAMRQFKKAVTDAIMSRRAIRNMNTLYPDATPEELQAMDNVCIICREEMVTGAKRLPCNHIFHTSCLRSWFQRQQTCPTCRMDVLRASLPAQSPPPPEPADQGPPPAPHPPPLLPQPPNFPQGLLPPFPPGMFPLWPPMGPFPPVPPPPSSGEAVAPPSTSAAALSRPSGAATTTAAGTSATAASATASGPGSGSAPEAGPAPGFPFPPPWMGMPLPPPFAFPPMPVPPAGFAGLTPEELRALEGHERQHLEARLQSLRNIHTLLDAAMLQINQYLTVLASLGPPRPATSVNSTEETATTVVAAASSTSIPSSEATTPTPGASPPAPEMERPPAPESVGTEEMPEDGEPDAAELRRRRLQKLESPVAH

B1: OS9 (Osteosarcoma amplified 9), endogenous (protein, UniProt Q13438 26-667)
chain: GGVGSLNLEELSEMRYGIEILPLPVMGGQSQSSDVVIVSSKYKQRYECRLPAGAIHFQREREEETPAYQGPGIPELLSPMRDAPCLLKTKDWWTYEFCYGRHIQQYHMEDSEIKGEVLYLGYYQSAFDWDDETAKASKQHRLKRYHSQTYGNGSKCDLNGRPREAEVRFLCDEGAGISGDYIDRVDEPLSCSYVLTIRTPRLCPHPLLRPPPSAAPQAILCHPSLQPEEYMAYVQRQADSKQYGDKIIEELQDLGPQVWSETKSGVAPQKMAGASPTKDDSKDSDFWKMLNEPEDQAPGGEEVPAEEQDPSPEAADSASGAPNDFQNNVQVKVIRSPADLIRFIEELKGGTKKGKPNIGQEQPVDDAAEVPQREPEKERGDPERQREMEEEEDEDEDEDEDEDERQLLGEFEKELEGILLPSDRDRLRSEVKAGMERELENIIQETEKELDPDGLKKESERDRAMLALTSTLNKLIKRLEEKQSPELVKKHKKKRVVPKKPPPSPQPTEEDPEHRVRVRVTKLRLGGPNQDLTVLEMKRENPQLKQIEGLVKELLEREGLTAAGKIEIKIVRPWAEGTEEGARWLTDEDTRNLKEIFFNILVPGAEEAQKERQRQKELESNYRRVWGSPGGEGTGDLDEFDF
binding [1]: binds

B2: UBE2J1, endogenous (enzyme, UniProt Q9Y385 1-318)
chain: METRYNLKSPAVKRLMKEAAELKDPTDHYHAQPLEDNLFEWHFTVRGPPDSDFDGGVYHGRIVLPPEYPMKPPSIILLTANGRFEVGKKICLSISGHHPETWQPSWSIRTALLAIIGFMPTKGEGAIGSLDYTPEERRALAKKSQDFCCEGCGSAMKDVLLPLKSGSDSSQADQEAKELARQISFKAEVNSSGKTISESDLNHSFSLTDLQDDIPTTFQGATASTSYGLQNSSAASFHQPTQPVAKNTSMSPRQRRAQQQSQRRLSTSPDVIQGHQPRDNHTDHGGSAVLIVILTLALAALIFRRIYLANEYIFDFEL
binding [1]: binds

B3: HERP1 (Homocysteine-induced ER protein 1), endogenous (protein, UniProt Q15011 1-391)
chain: MESETEPEPVTLLVKSPNQRHRDLELSGDRGWSVGHLKAHLSRVYPERPRPEDQRLIYSGKLLLDHQCLRDLLPKQEKRHVLHLVCNVKSPSKMPEINAKVAESTEEPAGSNRGQYPEDSSSDGLRQREVLRNLSSPGWENISRPEAAQQAFQGLGPGFSGYTPYGWLQLSWFQQIYARQYYMQYLAATAASGAFVPPPSAQEIPVVSAPAPAPIHNQFPAENQPANQNAAPQVVVNPGANQNLRMNAQGGPIVEEDDEINRDWLDWTYSAATFSVFLSILYFYSSLSRFLMVMGATVVMYLHHVGWFPFRPRPVQNFPNDGPPPDVVNQDPNNNLQEGTDPETEDPNHLPPDRDVLDGEQTSPSFMSTAWLVFKTFFASLLPEGPPAIAN
binding [1]: binds

B4: FAM8A1 (Family with sequence similarity 8 member A1), endogenous (protein, UniProt Q9UBU6 1-413)
chain: MAEGPEEARGHPPGQDDGGGDHEPVPSLRGPPTTAVPCPRDDPQAEPQAPGRPTAPGLAAAAAADKLEPPRELRKRGEAASGSGAELQEQAGCEAPEAAAPRERPARLSAREYSRQVHEWLWQSYCGYLTWHSGLAAFPAYCSPQPSPQSFPSGGAAVPQAAAPPPPQLGYYNPFYFLSPGAAGPDPRTAAGISTPAPVAGLGPRAPHVQASVRATPVTRVGSAAPSRSPSETGRQAGREYVIPSLAHRFMAEMVDFFILFFIKATIVLSIMHLSGIKDISKFAMHYIIEEIDEDTSMEDLQKMMVVALIYRLLVCFYEIICIWGAGGATPGKFLLGLRVVTCDTSVLIAPSRVLVIPSSNVSITTSTIRALIKNFSIASFFPAFITLLFFQHNRTAYDIVAGTIVVKRNGVR
binding [1]: binds | binding [2]: binds

B5: HERP1 (Homocysteine-induced ER protein 1), endogenous, Q15011 1-391 (protein)
chain: B3 chain
binding [3]: binds

B6: ABCD3, endogenous (protein, UniProt P28288 1-659)
chain: MAAFSKYLTARNSSLAGAAFLLLCLLHKRRRALGLHGKKSGKPPLQNNEKEGKKERAVVDKVFFSRLIQILKIMVPRTFCKETGYLVLIAVMLVSRTYCDVWMIQNGTLIESGIIGRSRKDFKRYLLNFIAAMPLISLVNNFLKYGLNELKLCFRVRLTKYLYEEYLQAFTYYKMGNLDNRIANPDQLLTQDVEKFCNSVVDLYSNLSKPFLDIVLYIFKLTSAIGAQGPASMMAYLVVSGLFLTRLRRPIGKMTITEQKYEGEYRYVNSRLITNSEEIAFYNGNKREKQTVHSVFRKLVEHLHNFILFRFSMGFIDSIIAKYLATVVGYLVVSRPFLDLSHPRHLKSTHSELLEDYYQSGRMLLRMSQALGRIVLAGREMTRLAGFTARITELMQVLKDLNHGKYERTMVSQQEKGIEGVQVIPLIPGAGEIIIADNIIKFDHVPLATPNGDVLIRDLNFEVRSGANVLICGPNGCGKSSLFRVLGELWPLFGGRLTKPERGKLFYVPQRPYMTLGTLRDQVIYPDGREDQKRKGISDLVLKEYLDNVQLGHILEREGGWDSVQDWMDVLSGGEKQRMAMARLFYHKPQFAILDECTSAVSVDVEGYIYSHCRKVGITLFTVSHRKSLWKHHEYYLHMDGRGNYEFKQITEDTVEFGS
binding [2]: binds
